# According to PMC7819943, “Rice protein-binding microarrays: a tool to detect cis-acting elements near promoter regions in rice”:
# Chains of the proteins cited; added tags and fusions are not shown.
# UniProt Q0JBA9, entry or part of it: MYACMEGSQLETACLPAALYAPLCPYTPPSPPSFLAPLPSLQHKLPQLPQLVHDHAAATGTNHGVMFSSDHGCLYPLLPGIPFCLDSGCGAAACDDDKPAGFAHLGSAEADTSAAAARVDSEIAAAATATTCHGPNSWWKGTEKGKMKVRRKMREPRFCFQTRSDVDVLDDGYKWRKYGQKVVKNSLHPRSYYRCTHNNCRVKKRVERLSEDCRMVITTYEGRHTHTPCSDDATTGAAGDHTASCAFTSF
# The list shows a part of the results.
# Molecular target: OsWRKY34 (Oryza sativa, UniProt Q0JBA9 1-250)
# Test: protein-binding microarray (RPBM); PBS, 2% BSA, 51.3 ng/ul salmon testes DNA, 50 uM zinc acetate, 200 nM TF, 25 C, 1 h; high values mean tight binding
# Conditions: protein: recombinant; tags: N-terminal polyhistidine and DsRed monomer fusion (pET32a); label: CyDye5-dUTP incorporated in the synthesized complementary strand; 3' TTTTT single-stranded linker to array surface; dsDNA, one strand shown
# Summary of the method: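 The binding signal is fluorescence intensity per feature, in arbitrary units, read on an Axon 4000B scanner. Polyhistidine- and DsRed-tagged transcription factors (N-terminal fusions) from E. coli BL21-CodonPlus were purified on Ni–NTA and applied at 200 nM for 1 h at 25 °C to a double-stranded, BSA-blocked custom Agilent array in buffer with 50 µM zinc acetate.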
row,Sequence,binding signal
1,TATCGCGTTACTGGTATGTTCCTGTTCCTGACATTCATGACGGAGTCACCTAGTGCAG,13600 fluorescence intensity (a.u.)
2,TCTACCTGGCCCCACATGTCATCCACTCGTGCTACGCAGCCGGAGTCACCTAGTGCAG,9910 fluorescence intensity (a.u.)
3,TCGGCCCGAGCGGTGGCGGTGGCGGTGGCGGAGGAGGAGGCGGAGTCACCTAGTGCAG,10100 fluorescence intensity (a.u.)
4,AGCCGTCACATTTTCCAGACTCCACACTGCCACCTTGTGCCGGAGTCACCTAGTGCAG,8410 fluorescence intensity (a.u.)
5,AGCTCTTTCTATGCGTTACCGCCTGCGTGCAGCCGTTCTTCGGAGTCACCTAGTGCAG,9190 fluorescence intensity (a.u.)
6,TCTGCTTCACTGTATTTTTGTCCAACAATTCCATGACATGCGGAGTCACCTAGTGCAG,8550 fluorescence intensity (a.u.)
7,TGCGGCAAGGACTCCGCTGCCTGCTCACCACCATCACGCACGGAGTCACCTAGTGCAG,8100 fluorescence intensity (a.u.)
8,CTTCACAGGCTTCAGGCCTCTTGTTGACCATGACCTAACTCGGAGTCACCTAGTGCAG,10000 fluorescence intensity (a.u.)
9,AGGCTGTGTTTTTTTTGGAGGGGTTGAAAATCCTTCCCATCGGAGTCACCTAGTGCAG,12100 fluorescence intensity (a.u.)
10,GTCATTTGACTTTTTTTGTCAAATACTTAAAATTTCTTAACGGAGTCACCTAGTGCAG,9040 fluorescence intensity (a.u.)
11,GCCTTTGCTCCGCTCCACAGCTGGTCGCCACCGTCGACCTCGGAGTCACCTAGTGCAG,10500 fluorescence intensity (a.u.)
12,ATAATTATTTCAACAATGTGTTAATTTTTTTGGTAAATTTCGGAGTCACCTAGTGCAG,8340 fluorescence intensity (a.u.)
13,TCTTTTTGTGTATCTTAGCTTATCTTATCTTCTCGAATTCCGGAGTCACCTAGTGCAG,10700 fluorescence intensity (a.u.)
14,ATGTCTTTTTCTGAACCTCCTTGCCCTACACCACTTCCAACGGAGTCACCTAGTGCAG,8410 fluorescence intensity (a.u.)
15,AACTGCACTTATTTTGTGACGGAGGTAGTAGACTTTTTTTCGGAGTCACCTAGTGCAG,9060 fluorescence intensity (a.u.)
16,TGACAATCTCCGTTTCGTCTTCTTCTTCTTCTTCTCCGCCCGGAGTCACCTAGTGCAG,8410 fluorescence intensity (a.u.)
17,TTTGGTTCACGCGGCGCGGGCGGGGAGTGGGAGGGGCATGCGGAGTCACCTAGTGCAG,24100 fluorescence intensity (a.u.)
18,CATCTCGCCGTCCACCGCCCACCACTCCGACTTCTTCGCGCGGAGTCACCTAGTGCAG,9600 fluorescence intensity (a.u.)
19,TCAGCTTGTTTCATTCGCATCTATAGCTTCTTTTTTTCCGCGGAGTCACCTAGTGCAG,9170 fluorescence intensity (a.u.)
20,TCCATTCGTAATTCATACAGTACTTTACATCGTTGCTTCACGGAGTCACCTAGTGCAG,8780 fluorescence intensity (a.u.)
21,TTGGTTTTCATGATATTTTGATCCTGCATTTTTTCCTATTCGGAGTCACCTAGTGCAG,10800 fluorescence intensity (a.u.)
22,TAGGTACATTCCCATCTATTTGGAAATTTTCTTATTCCAACGGAGTCACCTAGTGCAG,8060 fluorescence intensity (a.u.)
23,ACTACGCATCACCTATATTCCATCCAGCCCTACATAAACCCGGAGTCACCTAGTGCAG,8500 fluorescence intensity (a.u.)
24,CAGCAGAGAAATTCCACCGTTTTCCTGTCCTCGCTCGCCACGGAGTCACCTAGTGCAG,8610 fluorescence intensity (a.u.)
25,AATGAACCTTTTCTAATCCTGTTCGGCCCGTTTCAGCCGGCGGAGTCACCTAGTGCAG,8300 fluorescence intensity (a.u.)
26,ATCAGAAACCTCAGTCGTCTCACTTCTTCACATCACGCCACGGAGTCACCTAGTGCAG,8790 fluorescence intensity (a.u.)
27,TTAACTTTTTATGGTATTAATGATGTATTGGGGTTTTTTTCGGAGTCACCTAGTGCAG,11700 fluorescence intensity (a.u.)

row,Sequence,binding signal
1,GGGCTGGCAACGATGGCATTTCGGGCATCACTTCCCATCTCGGAGTCACCTAGTGCAG,10100 fluorescence intensity (a.u.)
2,TGTTTCACAAGTAGTCTTCTTTTTTTTCTGGCACATTTAACGGAGTCACCTAGTGCAG,8080 fluorescence intensity (a.u.)
3,CCAGTGAACATATACTCACAGTCAAATTTGTTTTTTGACTCGGAGTCACCTAGTGCAG,8350 fluorescence intensity (a.u.)
4,CGGGGCCAACGAACTTTTCCTCTCCTTCCCGCATCCTCTCCGGAGTCACCTAGTGCAG,8510 fluorescence intensity (a.u.)
5,CATTGCCAGGAGTCCCACACTCCCACTTCCCAAGTGCTGCCGGAGTCACCTAGTGCAG,8450 fluorescence intensity (a.u.)
6,CGCCGAACCCTTCTCGCGTCATCGTCCCCTTCCGCCGCCGCGGAGTCACCTAGTGCAG,9520 fluorescence intensity (a.u.)
7,GGGCTGGGTCGCGTACCCGAATCGTGCTCCATTGGATCTCCGGAGTCACCTAGTGCAG,9390 fluorescence intensity (a.u.)
8,CCACCTATTTAACTCGCGCCTCCATCGCTTTCCAGTTTCCCGGAGTCACCTAGTGCAG,10100 fluorescence intensity (a.u.)
9,CTAGAATCTCCTCGCGTTGTTCTTCCCTTGCTTAATTAATCGGAGTCACCTAGTGCAG,8650 fluorescence intensity (a.u.)
10,TTCGTTTTTTCCGCCCTCGTGTTCGGCGCAAATCTTCTTCCGGAGTCACCTAGTGCAG,8530 fluorescence intensity (a.u.)
11,AACCTTAGATTTCCGTGTCTAACTTTGACTGTCTGTCTTACGGAGTCACCTAGTGCAG,10600 fluorescence intensity (a.u.)
12,AATTGTTTCTGGGAAGTAGCTGGTTGTTAGTCACGTTAATCGGAGTCACCTAGTGCAG,11600 fluorescence intensity (a.u.)
13,CCTGCCCAACCCGCCGCATCCTAATTCCTAAACCCTAACACGGAGTCACCTAGTGCAG,8430 fluorescence intensity (a.u.)
14,CCTTTGTTCTTGCCGTCTCTTTTTTTTTTTTACAGAAGAACGGAGTCACCTAGTGCAG,14600 fluorescence intensity (a.u.)
15,CGATGGTGTGGTTTGGTTGCAGGTACAAGGTTGAAGACGACGGAGTCACCTAGTGCAG,10700 fluorescence intensity (a.u.)
16,AAGGGGCATAGAGAGCTCATAATGGGGTTGGTCGTATCTACGGAGTCACCTAGTGCAG,9500 fluorescence intensity (a.u.)
17,TCGGCTTGTCAGCCGATCGGCTGTTTTATCTGCTGTTTACCGGAGTCACCTAGTGCAG,8390 fluorescence intensity (a.u.)
18,ATCCGTACTCCCGTATATGTGGCAACATCTCCATCGTTTTCGGAGTCACCTAGTGCAG,16000 fluorescence intensity (a.u.)
19,AAAATCCCTGTCCCCTGTTTTTTTACTGCAATCTCGCGTACGGAGTCACCTAGTGCAG,11100 fluorescence intensity (a.u.)
20,GTTTTTTTTACTGTGTTTCTTAATCTAAAGCGACTATTATCGGAGTCACCTAGTGCAG,8270 fluorescence intensity (a.u.)
21,TCCCGTCTCCGCATCCACCTCCTCGGCCTCCGACTACTTACGGAGTCACCTAGTGCAG,9220 fluorescence intensity (a.u.)
22,CTCTGCTCAGTGCTGCTCACTGCCTCACTCACACTGTCACCGGAGTCACCTAGTGCAG,11000 fluorescence intensity (a.u.)
23,GCTGACCACGTTTCTCCTCTCTTTTTTACAGCGTCGCGCACGGAGTCACCTAGTGCAG,12200 fluorescence intensity (a.u.)
24,ACCGCCGGACCTCCTCTCCCGCCTCGTCCCGGCGACCTTCCGGAGTCACCTAGTGCAG,8890 fluorescence intensity (a.u.)
25,GGTATCAGAGCACGGTTTAGGAAGTGGACTCGTGACCGCGCGGAGTCACCTAGTGCAG,8040 fluorescence intensity (a.u.)
26,TTTTGTGTTTTGAATTTTGTCTCGAGACCTTCATGTTCTTCGGAGTCACCTAGTGCAG,10500 fluorescence intensity (a.u.)
27,ACTCCCTATACTATATATCATGTTTAAATTTTGGTCGTAACGGAGTCACCTAGTGCAG,8340 fluorescence intensity (a.u.)

# A second format for some results above:
row	Sequence	binding signal
4	CGGGGCCAACGAACTTTTCCTCTCCTTCCCGCATCCTCTCCGGAGTCACCTAGTGCAG	8510 fluorescence intensity (a.u.)
5	CATTGCCAGGAGTCCCACACTCCCACTTCCCAAGTGCTGCCGGAGTCACCTAGTGCAG	8450 fluorescence intensity (a.u.)
6	CGCCGAACCCTTCTCGCGTCATCGTCCCCTTCCGCCGCCGCGGAGTCACCTAGTGCAG	9520 fluorescence intensity (a.u.)
